Experimental data as given in US6469153 (TRUSTEES OF COLUMBIA UNIVERSITY IN THE CITY OF NEW YORK, dated 2002).
These are yes or no findings as the source states them, for the method shown. Some binding calls cover weakened binding; strength is not graded here. Tags and fused reporters may be left off the sequences shown.

Amino acid sequences for entries named in this document (tags omitted). Residues count along the entry.
UniProt P03385, residues 34-649: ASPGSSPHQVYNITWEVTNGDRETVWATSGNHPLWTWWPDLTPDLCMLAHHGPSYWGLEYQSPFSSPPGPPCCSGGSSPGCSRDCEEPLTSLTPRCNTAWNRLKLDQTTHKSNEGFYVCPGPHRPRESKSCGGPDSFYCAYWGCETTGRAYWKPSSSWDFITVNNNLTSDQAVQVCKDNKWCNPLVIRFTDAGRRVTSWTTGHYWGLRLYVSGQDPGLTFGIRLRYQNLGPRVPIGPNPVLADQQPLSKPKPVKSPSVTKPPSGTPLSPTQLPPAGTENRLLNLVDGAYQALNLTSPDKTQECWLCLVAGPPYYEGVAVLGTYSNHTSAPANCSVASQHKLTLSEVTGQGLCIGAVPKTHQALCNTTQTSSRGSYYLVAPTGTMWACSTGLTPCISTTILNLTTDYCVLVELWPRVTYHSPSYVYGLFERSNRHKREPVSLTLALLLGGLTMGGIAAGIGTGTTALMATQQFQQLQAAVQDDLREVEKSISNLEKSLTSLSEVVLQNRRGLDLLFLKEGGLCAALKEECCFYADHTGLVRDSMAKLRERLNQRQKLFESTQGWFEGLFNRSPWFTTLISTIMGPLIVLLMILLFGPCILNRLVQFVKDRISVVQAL

Assays:
[1] = molecular target: Envelope protein (TM in the context of the whole envelope protein) on intact ecotropic N2 virus (Moloney murine leukemia virus) (UniProt P03385); assay: depletion of N2 virus by GST-EIP-agarose beads; titer of supernatant on NIH3T3 cells
[2] = molecular target: Envelope protein (TM in the context of the whole envelope protein) on intact ecotropic N2 virus (Moloney murine leukemia virus) (UniProt P03385); assay: depletion of N2 virus by GST-EIP-agarose beads
[3] = molecular target: Envelope protein (TM in the context of the whole envelope protein) on intact ecotropic N2 virus (Moloney murine leukemia virus) (UniProt P03385); assay: in vitro binding assay with intact virus

Measured: binding

B1: GST-EIP-3 (protein, not shown: a dimerising Fc or GST)
chain: ELVGMSGGGTETPVACDAAQGGKKRDSLGTPGAAHLIIKDLGEIHSRLLDHRPVTQGEIRYFVKEFEEKRGLRELRVLKNLENTIQETNECLLPKCRETMECGLGETLQRLQAANDSICRLQQREQERKKVINDYLTASEKRRLVQWEEFVSGQPQRRAEVDEEHRRAVERLREQYAAMEKDLAKFSTF
binds: all assays above
